Among all 320,000 compounds or so, about 620 (0.19%) were called active. Inconclusive results, whose numbers are uncertain, are shown with a selection of clear calls. Cut-off read from the data, not from the text of the source: active = activation above about 80%; inconclusive = between about 30% and that limit; inactive = weaker than that.
biological target: Transient receptor potential cation channel subfamily V member 1 (Homo sapiens) (UniProt Q8NER1); experiment: HTS Assay for Compounds that Act as Agonists of the Vanilloid Receptor 1; details: TRPV1-expressing cells, Fluo-8 calcium influx, agonist mode; at 8.33 µM, active compounds read high; note: 0% is about no effect
Method in brief: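 Fluo-8 calcium influx in TRPV1-expressing cells, kinetic read (ex 480/em 520 nm). Compound added and read 3 min for agonist activity, followed by capsaicin at EC20 final and 2 min further read for enhancement.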

Protein sequences, listed by entry. Tags and fused reporters are not part of them.
UniProt Q8NER1, whole entry, looked up: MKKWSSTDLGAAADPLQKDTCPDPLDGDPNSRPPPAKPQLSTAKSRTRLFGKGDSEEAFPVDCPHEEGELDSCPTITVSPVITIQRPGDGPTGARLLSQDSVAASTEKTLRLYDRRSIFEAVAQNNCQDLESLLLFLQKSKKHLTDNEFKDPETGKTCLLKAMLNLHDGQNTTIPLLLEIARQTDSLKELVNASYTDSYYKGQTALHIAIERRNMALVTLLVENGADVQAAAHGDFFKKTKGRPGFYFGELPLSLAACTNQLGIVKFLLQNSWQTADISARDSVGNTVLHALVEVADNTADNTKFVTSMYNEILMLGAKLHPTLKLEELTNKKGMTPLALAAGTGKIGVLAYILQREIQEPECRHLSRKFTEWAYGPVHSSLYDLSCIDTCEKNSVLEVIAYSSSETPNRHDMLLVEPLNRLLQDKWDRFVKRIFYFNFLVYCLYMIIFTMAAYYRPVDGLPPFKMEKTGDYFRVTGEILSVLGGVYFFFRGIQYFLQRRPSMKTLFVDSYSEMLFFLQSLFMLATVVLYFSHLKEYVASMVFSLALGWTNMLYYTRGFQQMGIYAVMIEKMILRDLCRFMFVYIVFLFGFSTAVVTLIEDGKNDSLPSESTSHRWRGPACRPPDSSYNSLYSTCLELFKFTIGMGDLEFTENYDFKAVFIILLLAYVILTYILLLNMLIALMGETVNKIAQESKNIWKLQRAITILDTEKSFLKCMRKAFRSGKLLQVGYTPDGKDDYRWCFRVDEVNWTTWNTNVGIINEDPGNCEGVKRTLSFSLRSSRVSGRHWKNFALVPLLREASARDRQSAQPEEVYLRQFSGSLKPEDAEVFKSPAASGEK

Q: How did the activation turn out when `Cc1ccc(NC(=O)N2CCC(O)(c3ccc(Cl)cc3)CC2)cc1` was run?
A: inconclusive: 68%

Q: How did the activation turn out when `CC(C)(C)OC(=O)NCCCC[C@H](NC(=O)c1[nH]cnc1C(=O)Nc1ccc(CNC(=O)OC(C)(C)C)cc1)C(=O)OC(C)(C)C` was run?
A: inactive: 4%

Q: How did the activation turn out when `Cc1ccc(C(=O)CSc2ccc(-c3ccncc3)nn2)cc1` was run?
A: inconclusive: 33.1%

Q: Which activation does the source give for `Cc1ccc(CN2CCN(Cc3cccn3-c3ccccn3)CC2CCO)cc1` (stereo not drawn) here?
A: inactive: 1.21%

Q: `CCOC(=O)C1=C(Cc2ccc(F)cc2)C(=O)c2ccccc2C1=O` was tested. Which activation did it give?
A: inconclusive: 49%

Q: `Cc1ccc(/C=N/NC(=O)c2nnn(-c3nonc3N)c2C(C)C)o1` was tested. Which activation did it give?
A: inconclusive: 40%

Q: How did the activation turn out when `CC(C)(C)OC(=O)N[C@@H](C(=O)OC(C)(C)C)c1ccc(Br)cc1` was run?
A: inconclusive: 37.3%

Q: Which activation does the source give for `COc1ccc(S(=O)(=O)N2CCN(CC(=O)Nc3ccccc3Cl)CC2)cc1` here?
A: inactive: 8.25%

Q: How did the activation turn out when `Cc1ccccc1-n1c(C)cc(/C=C(\C#N)C(=O)NCC2CCCO2)c1C` (stereo not drawn) was run?
A: inconclusive: 47.2%

Q: Which activation does the source give for `CC(C)CCNC(=O)c1c[nH]c2ccc(S(=O)(=O)N3CCOCC3)cc2c1=O` here?
A: active: 82.2%

Q: Which activation does the source give for `CCOCC(=O)Nc1cc(C(=O)Nc2ccc(F)cc2)ccc1Cl` here?
A: inconclusive: 63.4%

Q: With `Cc1ccc(Nc2nc(-c3cccnc3)nc3ccccc23)cc1` as the compound, how does the activation read?
A: active: 95.1%

Q: How did the activation turn out when `COc1ccnc(N2CCN(c3ccccc3)CC2)c1C#N` was run?
A: inconclusive: 32.4%

Q: For `CC(C)c1ccc(S(=O)(=O)c2cc3cc(Br)ccc3oc2=O)cc1`, which activation is on record?
A: inconclusive: 58.5%

Q: `CCOC(=O)Cn1nc(C)cc1NC(=O)c1cc(OC)c(OC)c(OC)c1` was tested. Which activation did it give?
A: inactive: 3.2%

Q: Which activation does the source give for `O=C(Nc1ccc(NC(=O)c2ccc(Cl)c(S(=O)(=O)N3CCOCC3)c2)cc1)c1ccccc1` here?
A: inactive: -1.33%

Q: How did the activation turn out when `COc1ccc(-c2cc(=O)oc3c(C)c(O)ccc23)cc1` was run?
A: inconclusive: 64.8%

Q: How did the activation turn out when `CCN(CC)c1ccc(C2C(C(=O)OC(C)C)C(=O)CC(C)(O)C2C(=O)OC(C)C)cc1` (stereo not drawn) was run?
A: inconclusive: 38.1%

Q: With `CCOCCCNCc1cn(-c2ccc(F)cc2F)nc1-c1ccccc1C` as the compound, how does the activation read?
A: inconclusive: 40%

Q: Which activation does the source give for `O=C(Nc1cccnc1)c1ccc(S(=O)(=O)N2CCCCCC2)cc1` here?
A: inconclusive: 70%

Q: Which activation does the source give for `CCc1ccc(CNC(=O)c2ccc3nc(C4CCCCC4)oc3c2)nc1` here?
A: inconclusive: 39.1%

Q: With `COc1cccc(C(=O)Nc2ncc3c(n2)CC(C)(C)CC3=O)c1` as the compound, how does the activation read?
A: inconclusive: 58.7%

Q: How did the activation turn out when `COc1ccccc1/C=C/C(=O)NCCC1=CCCCC1` was run?
A: inactive: 21.8%

Q: `O=C(Nc1cccc(NC(=O)c2ccc(-c3ccc(Br)cc3)o2)c1)c1ccccc1` was tested. Which activation did it give?
A: inactive: -2.65%

Q: Which activation does the source give for `C=CCSc1nnc(NC(=O)c2cccc(S(=O)(=O)N3CCOCC3)c2)s1` here?
A: inactive: 25.9%

Q: For `Cc1ccc(S(=O)(=O)Nc2c(NC3CCCCC3)c3ccccc3oc2=O)cc1C`, which activation is on record?
A: inconclusive: 30.3%

Q: With `Cc1cccc(NC(=O)c2cc(-c3ccc(C)c(C)c3O)n[nH]2)c1` as the compound, how does the activation read?
A: inconclusive: 42.8%

Q: `COc1ccc(/C=N/NC(=O)c2cc(C)n(-c3ccccc3)c2C)cc1OC` was tested. Which activation did it give?
A: inconclusive: 30.3%

Q: For `O=C(CSc1ccc(F)cc1)Nc1ccc(Br)cc1`, which activation is on record?
A: inconclusive: 56.7%

Q: `O=C(NCc1ccc(C(F)(F)F)cc1)C1CC(c2cccc(F)c2)=NO1` (stereo not drawn) was tested. Which activation did it give?
A: inconclusive: 37.9%

Q: With `Cc1ccc2[nH]c(=O)c(CN(CCCN(C)C)C(=O)Nc3ccc(F)cc3)cc2c1` as the compound, how does the activation read?
A: inactive: 1.92%

Q: Which activation does the source give for `Cc1ccc(C(=O)NCCOC23CC4CC(CC(C4)C2)C3)cc1` here?
A: inconclusive: 52.8%

Q: With `O=C(NC1CCCCC1)C(=S)NCCc1ccccc1` as the compound, how does the activation read?
A: inactive: -0.413%

Q: For `CC(C)(C)OC(=O)[C@H](Cc1ccccc1)NC(=O)c1nc[nH]c1C(=O)NCC(=O)OCc1ccccc1`, which activation is on record?
A: inconclusive: 56.5%

Q: `COc1ccc(OCc2cc(C(=O)N3CCC(OC)CC3)no2)c2ccccc12` was tested. Which activation did it give?
A: inconclusive: 32.2%

Q: With `O=c1c2nnn(-c3cccc(F)c3)c2ncn1Cc1ccccn1` as the compound, how does the activation read?
A: inconclusive: 38.9%

Q: With `CCC(C)c1ccc(NC(=S)NCc2ccccn2)cc1` (stereo not drawn) as the compound, how does the activation read?
A: inconclusive: 53.8%

Q: With `CCN(CC)S(=O)(=O)c1cc(C(=O)N2CCc3ccccc32)ccc1Cl` as the compound, how does the activation read?
A: inconclusive: 38.2%

Q: Which activation does the source give for `CCOC(=O)CC1COCCN1C(=O)c1ccc2oc(Cc3ccccc3)nc2c1` (stereo not drawn) here?
A: inactive: 0.738%

Q: How did the activation turn out when `O=c1c(N2CCOCC2)coc2ccccc12` was run?
A: inactive: -2.44%

Q: For `COc1ccc(CCNC(=O)Cn2nc(C)c3c(C)n(-c4ccc(C)cc4)nc3c2=O)c(OC)c1`, which activation is on record?
A: inactive: -3.51%

Q: How did the activation turn out when `Cc1cc(OCC(=O)NCC(C)C)cc(C)c1Br` was run?
A: inconclusive: 51.3%

Q: With `COc1cccc(CNc2nc3ccc(C)cc3n3cnnc23)c1` as the compound, how does the activation read?
A: inconclusive: 38%

Q: `COc1cccc2[nH]c(C(=O)NCc3ccccc3)cc12` was tested. Which activation did it give?
A: inactive: 3.89%

Q: Which activation does the source give for `Cc1ccccc1C(=O)NCC(=O)OCCOc1ccc(C(C)C)c(C)c1` here?
A: inconclusive: 38.5%

Q: `CC(=O)c1cc(-c2ccccc2)n(CCC(=O)NC2CCCCCC2)c1C` was tested. Which activation did it give?
A: inconclusive: 58%

Q: `Cc1ccc(-c2cc(C(F)F)n3ncc(C(=O)N4CCc5ccccc5C4)c3n2)cc1` was tested. Which activation did it give?
A: inactive: 1.69%

Q: Which activation does the source give for `CC1(C)Cc2ccccc2-c2nc(-c3ccccc3)oc(=O)c21` here?
A: inconclusive: 32.9%

Q: Which activation does the source give for `COc1cc2c(=O)n(CC3CCCO3)c(=O)n(CC(=O)Nc3ccccc3)c2cc1OC` (stereo not drawn) here?
A: inactive: 0.581%

Q: Which activation does the source give for `COc1cc(NC(=O)COC(=O)CSc2ccccc2F)c(C)cc1[N+](=O)[O-]` here?
A: inconclusive: 43.6%

Q: For `CCCNC(=O)c1oc2ccc3c(c2c1C)C=CC(C)(C)O3`, which activation is on record?
A: inconclusive: 71.5%

Q: How did the activation turn out when `S=C(NCc1ccccn1)Nc1ccccc1` was run?
A: inactive: -3.91%

Q: For `COc1nc(N)nc(CC(=O)C2CC2)n1`, which activation is on record?
A: inactive: -0.0165%

Q: How did the activation turn out when `COc1ccc(-c2cc(C(=O)NCCCN3CCOCC3)c3cc(C(C)C)ccc3n2)cc1` was run?
A: inconclusive: 60.8%

Q: With `CCOc1ccc(CNC(=S)NCc2ccc(OCC)cc2)cc1` as the compound, how does the activation read?
A: inconclusive: 64.8%

Q: With `CC(=O)/C(=N/Nc1ccccc1)Sc1nnc(CCc2ccccc2)n1-c1ccccc1` as the compound, how does the activation read?
A: inactive: 0.579%

Q: `COC(=O)c1cn(NC(=O)CC2CCCCC2)c(=O)c2ccccc12` was tested. Which activation did it give?
A: inconclusive: 52.8%

Q: With `Cc1ccc2c(c1)c(C1=c3ccccc3=NC1=O)c(O)n2C` as the compound, how does the activation read?
A: inconclusive: 30%

Q: Which activation does the source give for `CCC(C)c1ccc(S(=O)(=O)N2CCN(c3ccccn3)CC2)cc1` (stereo not drawn) here?
A: inconclusive: 52.4%

Q: How did the activation turn out when `O=[N+]([O-])c1c(Nc2ccccc2O)cc(Cl)c2nonc12` was run?
A: inactive: -0.383%

Q: For `Cc1ccccc1C1CC(c2ccccc2OC(F)F)Nc2ncnn21` (stereo not drawn), which activation is on record?
A: inconclusive: 35.3%

Q: `CCCCCC(=O)N/N=C(\C)c1ccc(Cl)cc1` was tested. Which activation did it give?
A: inconclusive: 50.4%

Q: `Fc1ccc2[nH]c3c(NCCN4CCOCC4)ncnc3c2c1` was tested. Which activation did it give?
A: inactive: -4.83%

Q: For `CCOc1ccc(CC(=O)C2C(=O)CCCC2=O)cc1OCC`, which activation is on record?
A: inactive: -1.7%

Q: How did the activation turn out when `CC(C)Cc1nnc(NC(=O)c2cccc(S(=O)(=O)N3CCOCC3)c2)s1` was run?
A: inconclusive: 62.2%

Q: With `O=C(N/N=C/c1ccc(Br)s1)c1ccco1` as the compound, how does the activation read?
A: inconclusive: 52.2%

Q: Which activation does the source give for `O=C(N/N=C\c1ccc(CNS(=O)(=O)c2ccccc2)o1)C(=O)Nc1ccc(F)cc1` here?
A: inactive: 1.8%

Q: How did the activation turn out when `CCC1ON(c2ccccc2)C2c3nc4ccccc4n3CC12` (stereo not drawn) was run?
A: inconclusive: 61.8%

Q: For `COc1ccc(CN(C)C(=O)CC(c2ccccc2)c2ccccc2)cc1`, which activation is on record?
A: inconclusive: 41.7%

Q: With `Cc1noc(C)c1S(=O)(=O)Nc1c(C)n(C)n(-c2ccccc2)c1=O` as the compound, how does the activation read?
A: inactive: 3.28%

Q: `COc1ccc(/C=C/C(=O)c2cc(F)ccc2OC(=O)c2ccc(OC)c(OC)c2)cc1OC` was tested. Which activation did it give?
A: inactive: 4.46%

Q: How did the activation turn out when `CC1(C)CC(=O)c2c(O)cc(OCC(=O)N3CCN(c4ccccc4)CC3)cc2O1` was run?
A: inconclusive: 60.5%

Q: For `O=S(=O)(c1ccc(Cl)c(C(F)(F)F)c1)N1CCN(c2ccccn2)CC1`, which activation is on record?
A: inconclusive: 33.6%

Q: `COC(=O)[C@H](Cc1ccccc1)N(C)S(=O)(=O)c1cccc(S(=O)(=O)N(C)[C@@H](Cc2ccccc2)C(=O)OC)c1` was tested. Which activation did it give?
A: inactive: 0.126%

Q: With `COc1cc2c(cc1OC)CN(CC(=O)Nc1ccc(S(=O)(=O)N3CCCC3)cc1)CC2` as the compound, how does the activation read?
A: inconclusive: 48.8%

Q: How did the activation turn out when `CC(C)CCNC(=O)c1ccc2c(c1)N(C)C(=O)c1ccccc1S2` was run?
A: inconclusive: 38.5%

Q: Which activation does the source give for `COc1cccc(NS(=O)(=O)c2c(C)nc3sccn3c2=O)c1` here?
A: inconclusive: 44.4%

Q: `CCOC(=O)C1(CCC(C)C)CC(CSc2nc3ccccc3[nH]2)OC1=O` (stereo not drawn) was tested. Which activation did it give?
A: inconclusive: 32.4%

Q: `O=C(c1ccc(Cl)c(S(=O)(=O)N2CCOCC2)c1)N1CCN(Cc2ccccc2)CC1` was tested. Which activation did it give?
A: inactive: -0.174%

Q: With `Clc1cc(NCc2cccs2)ccc1N1CCOCC1` as the compound, how does the activation read?
A: inconclusive: 47.1%

Q: Which activation does the source give for `CCN(CCCNC(=O)c1[nH]c(C)c(C(C)=O)c1C)c1cccc(C)c1` here?
A: inconclusive: 55.2%

Q: Which activation does the source give for `O=C1C(=O)N(c2cccc(Cl)c2)C(c2ccccc2[N+](=O)[O-])/C1=C(\O)c1ccccc1` (stereo not drawn) here?
A: inactive: 3.79%

Q: For `Cc1ccccc1S(=O)(=O)Cc1ccc(C(=O)N2CC(C)CC(C)C2)o1` (stereo not drawn), which activation is on record?
A: inconclusive: 37.5%

Q: Which activation does the source give for `COc1ccc(CC(=O)Nc2nc(-c3ccc(F)c(F)c3)cs2)cc1` here?
A: inconclusive: 60.7%

Q: With `Cc1ccc(-c2nc(CNC(=O)c3ccco3)cs2)cc1` as the compound, how does the activation read?
A: inconclusive: 39.7%

Q: `CC1CN(CC(O)COc2ccc(C#N)cc2)CCN1CC(O)COc1ccc(C#N)cc1` (stereo not drawn) was tested. Which activation did it give?
A: inactive: -0.606%

Q: `N#C/C(=C/c1ccc(F)cc1)C(N)=S` was tested. Which activation did it give?
A: inactive: -4.78%

Q: Which activation does the source give for `Cc1ccc(OCc2ccc(C(=O)Nc3nc4ccccc4n3C)o2)c([N+](=O)[O-])c1` here?
A: inactive: 1.11%
